Data as given in PubChem BioAssay AID686943 (Drosophila RNAi Screening Center, 2013)
Test: 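Fly genes whose loss alters ERK activation after insulin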 (primary screen). Cell system: Drosophila S2R+ haemocyte-like cells expressing YFP-tagged ERK (Rolled). Knock-down reagent: long dsRNA against Drosophila genes. Conditions: insulin stimulation versus unstimulated cells; dose and duration not given. Detection: 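Antibody staining for doubly phosphorylated ERK divided by ERK-YFP signal, as plate z-scores, in insulin-treated and untreated cells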. Reading the numbers: replicate 1, z-score of dpERK with insulin: higher = more active ERK per ERK-YFP after insulin.
In all, the deposit lists about 23,000 reagents; this is an unselected part of those with a known target gene and a result. 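Extra replicates exist only for a retested subset of genes; insulin dose and duration not given; both raised and lowered dpERK matter.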 Names joined by + are all predicted targets of the reagent. Further read-outs or replicates are left out here. Not given: the amount of reagent, the time to read-out.

The first 2 records as a preview:
predicted target,dsRNA,"replicate 1, z-score of dpERK with insulin"
CG17760,DRSC06694,1.03
eg,DRSC11885,-0.54

Main list, from the start:
predicted target,dsRNA,"replicate 1, z-score of dpERK with insulin"
CG17760,DRSC06694,1.03
eg,DRSC11885,-0.54
Pof,DRSC04405,0.04
LManII,DRSC01986,0.03
CG13506,DRSC04150,-0.01
Drsl4,DRSC08034,-0.58
Pstk + CG14210 + Tim9b,DRSC19566,-1.27
RpL9,DRSC03418,-2.35
Vha68-1,DRSC03470,0.79
Asator,DRSC17136,0.25
cue,DRSC08248,0.19
Epac,DRSC04969,-0.7
Epac,DRSC04996,0.33
Epac,DRSC04997,0.88
CG8508,DRSC16436,0.64
Hmx,DRSC15307,0.85
Hmx,DRSC15884,1.13
Hmx,DRSC16706,-0.79
Hmx,DRSC22799,-4.58
CG2260,DRSC18223,0.95
TrpRS,DRSC14097,-0.65
CG6707,DRSC10697,0.75
Crk,DRSC17163,0.64
Cul4,DRSC07243,-1.1
ppk31,DRSC13811,-0.06
CG9008,DRSC01889,1.37
CG9377,DRSC03217,0
CG14989,DRSC08448,-0.22
CG1324,DRSC20496,1.19
CG32855,DRSC13131,-0.28
CG34026,DRSC17616,0.64
Nadk2,DRSC07072,0.1
CG15824,DRSC00473,-0.43
LysRS,DRSC17824,1.37
CG13245,DRSC02243,0.3
Stoml2,DRSC04326,0
CG6184,DRSC15986,-0.9
CG15443,DRSC00455,1.31
CG10737,DRSC05999,0.09
CG4271,DRSC00649,0.57
gry,DRSC08028,1.19
gry,DRSC08518,0.86
Grp170,DRSC18524,1.04
Drsl6,DRSC08161,0.76
CG34376,DRSC14695,-1.97
CG34376,DRSC14696,0.48
CG34376,DRSC14701,1.18
UQCR-Q,DRSC10886,-0.55
mahj,DRSC04053,-0.4
CG6426,DRSC06985,0.42
CG14151,DRSC10153,-2.15
Ir48a,DRSC05301,0.2
ImpL2,DRSC08666,-0.85
lncRNA:CR42859,DRSC00103,0.92
Datp,DRSC01102,-0.36
APC10,DRSC06071,-0.14
CG1572,DRSC19686,0.61
